Experiment [1] deals with T1, manganese superoxide dismutase (rat (endogenous in neonatal Sprague-Dawley rat cardiomyocytes)) (UniProt P07895).
T1 sequence: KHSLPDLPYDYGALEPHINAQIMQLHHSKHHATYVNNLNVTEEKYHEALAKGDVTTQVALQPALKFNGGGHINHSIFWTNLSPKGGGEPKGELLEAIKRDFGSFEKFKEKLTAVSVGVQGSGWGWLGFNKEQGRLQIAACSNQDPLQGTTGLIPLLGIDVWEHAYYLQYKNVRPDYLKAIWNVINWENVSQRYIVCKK
Briefly: co-IP; anti-MnSOD antibody on Sepharose beads, overnight at 4°C, immunocomplex blotted for p38β; lysates of rat cardiomyocytes treated as indicated (H/R, E2).

Experiment [2] concerns the target p38β mitogen activated protein kinase (rat (endogenous in neonatal Sprague-Dawley rat cardiomyocytes)). Briefly: co-IP; anti-p38β antibody on Sepharose beads, immunocomplex blotted for MnSOD; lysate of rat cardiomyocytes at normoxia (baseline).
For experiment [3] the target is unchanged. Put plainly: co-IP; anti-p38β antibody on Sepharose beads, immunocomplex blotted for MnSOD; lysate of rat cardiomyocytes after H/R without E2.
The target is the same in experiment [4]. Briefly: co-IP; anti-p38β antibody on Sepharose beads, overnight at 4°C, immunocomplex blotted for MnSOD; lysate of rat cardiomyocytes after H/R with E2 at 10 nM; lysis buffer 50 mM Tris HCl pH 7.5, 100 mM NaCl, 5 mM EDTA, 1% Triton X-100.

Results are given in words; binding and its absence hold for the method and conditions named. In cells and extracts the contact can be indirect. Binding can be weak; no strength is given.

In the case of “p38β mitogen activated protein kinase (enzyme)”, the binding entry in experiment [1] is “binds”.

B1: manganese superoxide dismutase (enzyme, UniProt P07895 25-222)
chain: KHSLPDLPYDYGALEPHINAQIMQLHHSKHHATYVNNLNVTEEKYHEALAKGDVTTQVALQPALKFNGGGHINHSIFWTNLSPKGGGEPKGELLEAIKRDFGSFEKFKEKLTAVSVGVQGSGWGWLGFNKEQGRLQIAACSNQDPLQGTTGLIPLLGIDVWEHAYYLQYKNVRPDYLKAIWNVINWENVSQRYIVCKK
For B1, the binding entry in experiment [2] was “binds weakly”; in experiment [3], “binds weakly”; in experiment [4] it was “binds”.

(Values after PMC3899003.)
